The supplement of paper PMC12823440, “Inhibitors supercharge kinase turnover through native proteolytic circuits” (Nature, 2025)
Where a name gives a salt, the structure may show the parent alone. This is one part of the list. The calls rarely recur for the same compound in another form.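 In K562 cells expressing nanoluciferase-fused kinases, luminescence was recorded at 4 h intervals between 2 and 18 h, normalized as percent of control with DMSO at 100% and a positive control at 0%. A significant (2 sigma) signal drop marks a time point as decreased. The authors' rule for a hit is not shown and takes in more than the number of time points.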

Each compound was assayed against EGFR_L718V (UniProt P00533) (assay: kinase-Nluc reporter destabilization hit call (1 = scored as downregulated) (binary); higher = compound decreases kinase abundance). Settings: 10 µM; K562; 2-18 h.

kinase-Nluc reporter destabilization hit call, inactive:
COc1cc2c(-c3cnn4cc(N5CCC(N6CCN(C)CC6)CC5)cnc34)ccnc2cc1F [ALK2-IN-4 (succinate)] 0
C#Cc1cccc(Nc2ncnc3cc(OCCOC)c(OCCO)cc23)c1 [Desmethyl Erlotinib] 0
N=C(N)NC(=O)c1nc(Cl)c(N)nc1N [Amiloride (hydrochloride)] 0
N#CC[C@H](C1CCCC1)n1cc(-c2ncnc3[nH]ccc23)cn1 [Ruxolitinib (phosphate)] 0
CC(=O)c1c(C)c2cnc(Nc3ccc(N4CCNCC4)cn3)nc2n(C2CCCC2)c1=O [Palbociclib (monohydrochloride)] 0
O=C(O)c1ccc2c(c1)nc(Nc1cccc(Cl)c1)c1ccncc12 [Silmitasertib (sodium salt)] 0
COc1ccnc(C[S+]([O-])c2nc3cc(-n4cccc4)ccc3[nH]2)c1C (stereo not given) [Ilaprazole (sodium)] 0
CC(C)NC[C@@H](C(=O)N1CCN(c2ncnc3c2[C@H](C)C[C@H]3O)CC1)c1ccc(Cl)cc1 [Ipatasertib (dihydrochloride)] 0
CC(=O)c1c(C)c2cnc(Nc3ccc(N4CCNCC4)cn3)nc2n(C2CCCC2)c1=O [Palbociclib (isethionate)] 0
O=C(c1ccc(F)c(F)c1Nc1ccc(I)cc1F)N1CC(O)([C@@H]2CCCCN2)C1 [Cobimetinib (hemifumarate)] 0
COC(=O)[C@H](CC(C)C)NC(=O)c1ccc(NC[C@@H](N)CS)cc1-c1cccc2ccccc12 0
N#CCNC(=O)c1ccc(-c2ccnc(Nc3ccc(N4CCOCC4)cc3)n2)cc1 [Momelotinib] 0
CC(=O)Nc1cccc(-n2c(=O)n(C3CC3)c(=O)c3c(Nc4ccc(I)cc4F)n(C)c(=O)c(C)c32)c1 [Trametinib] 0
O=C(Nc1cnn2ccc(N3CCC[C@@H]3c3cc(F)ccc3F)nc12)N1CC[C@H](O)C1 [Larotrectinib sulfate] 0
C#Cc1cccc(Nc2ncnc3cc4c(cc23)OCCOCCOCCO4)c1 [Icotinib (Hydrochloride)] 0
COc1cc2nccc(Oc3ccc(NC(=O)C4(C(=O)Nc5ccc(F)cc5)CC4)cc3)c2cc1OC [Cabozantinib (S-malate)] 0
N#CC[C@H](C1CCCC1)n1cc(-c2ncnc3[nH]ccc23)cn1 [Ruxolitinib] 0
CS(=O)(=O)N1CCN(Cc2cc3nc(-c4cccc5[nH]ncc45)nc(N4CCOCC4)c3s2)CC1 [Pictilisib (dimethanesulfonate)] 0
N#CCNC(=O)c1ccc(-c2ccnc(Nc3ccc(N4CCOCC4)cc3)n2)cc1 [Momelotinib sulfate] 0
C[C@H](CCC(=O)NCCS(=O)(=O)O)[C@H]1CC[C@H]2[C@@H]3[C@@H](O)C[C@@H]4C[C@H](O)CC[C@]4(C)[C@H]3CC[C@]12C [Tauroursodeoxycholate (sodium)] 0
CN(C)C(=N)NC(=N)N [Metformin (hydrochloride)] 0
C/C=C1\C(=O)C[C@H]2[C@@H]3CCC4=CC(=O)CC[C@]4(C)[C@H]3CC[C@]12C [Guggulsterone] 0
Cn1cc(-c2cnc3ccc4ccc(CS(=O)(=O)NCc5ccccn5)cc4c(=O)c3c2)cn1 [MK-8033 (hydrochloride)] 0
C/C=C1\C(=O)C[C@H]2[C@@H]3CCC4=CC(=O)CC[C@]4(C)[C@H]3CC[C@]12C [(Z)-Guggulsterone] 0
COc1cc2c(-c3cnn4cc(N5CCC(N6CCN(C)CC6)CC5)cnc34)ccnc2cc1F 0

2 records drawn at random from the list so far:
kinase-Nluc reporter destabilization hit call, inactive:
COc1cc2c(-c3cnn4cc(N5CCC(N6CCN(C)CC6)CC5)cnc34)ccnc2cc1F [ALK2-IN-4 (succinate)] 0
N=C(N)NC(=O)c1nc(Cl)c(N)nc1N [Amiloride (hydrochloride)] 0
